These are yes or no findings as the source states them, for the method shown. Binding seen in cells or lysates may run through a third protein. Here binding means that the protein was enriched with, or labelled near, the bait; the list need not be complete.
Key:
[1] = target: MAC-PCIF1 (HA-Strep II-BirA*-PCIF1) (human) (UniProt Q9H4Z3); experiment: proximity labelling; BioID: BirA*-fused bait induced with 200 ng/ml dox in stable 293T cells, 50 μM biotin for 24 h, streptavidin bead purification of biotinylated proteins, LC-MS/MS; hits filtered by Limma (>4-fold, adjusted P < 0.01) and SAINT (score >0.74) against BirA* and NLS-BirA* controls
[2] = target: MAC-PCIF1 (HA-Strep II-BirA*-PCIF1) (human) (UniProt Q9H4Z3); experiment: affinity purification with mass spectrometry; Strep II-tagged bait captured on StrepTactinXT beads from 293T total lysate, 4 h at 4°C, with RNase inhibitor (-RNase A) or with 2 μg/ml RNase A; washes with 350 mM KCl; LC-MS/MS; against Strep II-eGFP control

Chains of the proteins cited; added tags and fusions are not shown.
UniProt Q9H4Z3: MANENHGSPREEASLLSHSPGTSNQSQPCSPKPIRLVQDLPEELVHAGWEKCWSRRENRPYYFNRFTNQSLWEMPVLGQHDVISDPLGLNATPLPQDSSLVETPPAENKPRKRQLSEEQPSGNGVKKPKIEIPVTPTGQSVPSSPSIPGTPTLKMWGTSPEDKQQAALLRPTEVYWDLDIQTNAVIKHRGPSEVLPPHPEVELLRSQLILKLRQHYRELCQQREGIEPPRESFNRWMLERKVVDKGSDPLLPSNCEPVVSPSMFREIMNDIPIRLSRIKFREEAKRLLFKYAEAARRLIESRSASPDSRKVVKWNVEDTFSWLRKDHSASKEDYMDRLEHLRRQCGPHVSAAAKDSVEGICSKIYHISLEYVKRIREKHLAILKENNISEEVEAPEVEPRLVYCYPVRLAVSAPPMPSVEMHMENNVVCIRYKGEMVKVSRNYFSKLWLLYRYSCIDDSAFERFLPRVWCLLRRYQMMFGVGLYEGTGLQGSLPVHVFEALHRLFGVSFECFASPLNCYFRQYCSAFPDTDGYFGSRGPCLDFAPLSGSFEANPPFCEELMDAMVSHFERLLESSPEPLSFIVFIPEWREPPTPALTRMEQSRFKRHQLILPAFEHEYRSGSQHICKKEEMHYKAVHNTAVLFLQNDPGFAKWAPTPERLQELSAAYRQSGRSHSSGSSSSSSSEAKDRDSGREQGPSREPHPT

B1: CRML (protein, UniProt Q96RY5 1-1269)
chain: MTVKLGDGGSGEDGLKKLGKRAADEESLEGEGAGGADAAEESSGTKRDEKTPRAGADGPPAPPGAPQAPSPPQGSPQDQHHFLRSSVRPQSKRPRKDPPSAVGSGNAGGSGPRGKGAEGGGSSSGNVSGVAPAAPAGGSRSSSRNLGSSGGEKEEGKKVRRQWESWSTEDKNTFFEGLYEHGKDFEAIQNNIALKYKKKGKPASMVKNKEQVRHFYYRTWHKITKYIDFDHVFSRGLKKSSQELYGLICYGELRKKIGGCMDDKNATKLNELIQVGATTVRYKGRNLRIKAPMCRALKKLCDPDGLSDEEDQKPVRLPLKVPIELQPRNNHAWARVQSLAQNPRLRMIVELHRKVSSLIEFLKQKWALHEVRVRKTLEERQLQDSCSAPMQEKVTLHLFPGENCTLTPLPGVARVVHSKAFCTVHWQEGGRCKQSAKDAHVLPPAQILGIQSGQGTARGQVKCPRSGAEGKGVGRPPPAADALQSSGESSPESAPGEGAALSLSSPDAPDRPPPRHQDTGPCLEKTPAEGRDSPTREPGALPCACGQLPDLEDELSLLDPLPRYLKSCQDLIVPEQCRCADTRPGSEQPPLGGAASPEVLAPVSKEAADLAPTGPSPRPGPGLLLDVCTKDLADAPAEELQEKGSPAGPPPSQGQPAARPPKEVPASRLAQQLREEGWNLQTSESLTLAEVYLMMGKPSKLQLEYDWLGPGRQDPRPGSLPTALHKQRLLSCLLKLISTEVNPKLALEANTISTASVRPAQEEQSMTPPGKVVTVSSRSPRCPRNQASLRSSKTFPPSSAPCSSGLRNPPRPLLVPGPSSTGSNDSDGGLFAVPTTLPPNSRHGKLFSPSKEAELTFRQHLNSISMQSDFFLPKPRKLRNRHLRKPLVVQRTLLPRPSENQSHNVCSFSILSNSSVTGRGSFRPIQSSLTKAALSRPIVPKVLPPQATSHLASAIDLAATSAGILSGNPLPALDTEGLSGISPLSSDEVTGAISGQDSTGTHQDGDTLPTVGGSDPFVSIPSRPEQEPVADSFQGSSVLSLSELPKAPLQNGLSIPLSSSESSSTRLSPPDVSALLDISLPGPPEDALSQGEPATHISDSIIEIAISSGQYGEGVPLSPAKLNGSDSSKSLPSPSSSPQPHWIASPTHDPQWYPSDSTDSSLSSLFASFISPEKSRKMLPTPIGTNSGTSLLGPSLLDGNSRDSFVSRSLADVAEVVDSQLVCMMNENSIDYISRFNDLAQELSIAEPGRREALFDGGGGGPAVSDLSQ
binding [1]: binds | binding [2]: binds

Reference: article PMC8565353
